Data reported in publication PMC12431861.
These are yes or no findings as the source states them, for the method shown. In cells and extracts the contact can be indirect. Some entries that bind do so weakly or less than the wild type.

Biological target: T1, CTCF^HALO (CCCTC-binding factor with a C-terminal HALO domain, homozygous knock-in) (mouse (endogenous in E14-derived ES and NS cells)) (UniProt Q61164)
T1 sequence: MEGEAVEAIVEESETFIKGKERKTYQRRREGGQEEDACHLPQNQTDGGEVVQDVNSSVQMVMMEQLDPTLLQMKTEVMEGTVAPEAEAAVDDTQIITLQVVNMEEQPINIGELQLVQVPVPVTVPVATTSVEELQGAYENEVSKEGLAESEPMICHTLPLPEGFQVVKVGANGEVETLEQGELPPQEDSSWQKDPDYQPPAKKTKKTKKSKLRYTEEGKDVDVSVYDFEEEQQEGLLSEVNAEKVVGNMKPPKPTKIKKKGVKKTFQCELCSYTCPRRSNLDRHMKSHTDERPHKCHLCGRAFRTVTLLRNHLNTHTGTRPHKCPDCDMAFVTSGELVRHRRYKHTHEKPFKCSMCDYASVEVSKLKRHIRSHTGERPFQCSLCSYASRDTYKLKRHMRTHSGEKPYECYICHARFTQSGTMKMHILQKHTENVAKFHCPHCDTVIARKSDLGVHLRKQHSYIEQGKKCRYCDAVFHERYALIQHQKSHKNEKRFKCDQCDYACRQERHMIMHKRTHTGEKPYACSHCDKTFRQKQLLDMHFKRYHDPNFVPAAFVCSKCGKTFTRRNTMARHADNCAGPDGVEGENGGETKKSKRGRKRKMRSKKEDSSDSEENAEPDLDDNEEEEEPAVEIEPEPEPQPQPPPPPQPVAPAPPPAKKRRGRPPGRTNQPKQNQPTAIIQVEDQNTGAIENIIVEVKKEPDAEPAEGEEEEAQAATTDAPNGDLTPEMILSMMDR
Experiment: proximity ligation; Duolink PLA in PFA-fixed, Triton-permeabilised CTCF^HALO ES and NS cells (also wild-type, Pantr1-/- and Neat1-/- NS cells); puncta counted per nucleus

binding: binds
B1: Non-POU Domain Containing Octamer Binding (Nono) (protein, UniProt Q99K48 1-473)
chain: MQSNKAFNLEKQNHTPRKHHQHHHQQHHQQQQQQQQQQPPPPIPANGQQASSQNEGLTIDLKNFRKPGEKTFTQRSRLFVGNLPPDITEEEMRKLFEKYGKAGEVFIHKDKGFGFIRLETRTLAEIAKVELDNMPLRGKQLRVRFACHSASLTVRNLPQYVSNELLEEAFSVFGQVERAVVIVDDRGRPSGKGIVEFSGKPAARKALDRCSEGSFLLTTFPRPVTVEPMDQLDDEEGLPEKLVIKNQQFHKEREQPPRFAQPGSFEYEYAMRWKALIEMEKQQQDQVDRNIKEAREKLEMEMEAARHEHQVMLMRQDLMRRQEELRRMEELHNQEVQKRKQLELRQEEERRRREEEMRRQQEEMMRRQQEGFKGTFPDAREQEIRMGQMAMGGAMGINNRGAMPPAPVPPGTPAPPGPATMMPDGTLGLTPPTTERFGQAATMEGIGAIGGTPPAFNRPAPGAEFAPNKRRRY
